For 62 molecules, AC50 results are on record in PubChem BioAssay AID493014 (National Center for Advancing Translational Sciences (NCATS), 2011).

Structures are written as SMILES. Where “and” joins values, the source holds several entries; their conditions need not be identical. Identical values can stand only once. Some of the results follow. These are further read-outs of the screen, such as a control signal, another cell line or another target. No call is given for them. Compounds called inactive in the main read-out are mostly missing here. Words in brackets tell the shape of the fitted curve; partial curves, single points and poor fits give uncertain potencies.

This experiment is described as follows: qHTS Assay to Find Inhibitors of Chronic Active B-Cell Receptor Signaling. The conditions noted are these: ABC-DLBCL IkBa-CBG/CBR reporter, luminescence ratio (green luciferase fused to IkBa over red control in TMD8 lymphoma cells), 4 h. An outline of the steps:
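TMD8 human ABC-DLBCL cells with doxycycline-inducible IκBα–green luciferase fusion and unfused red luciferase, in 0.5% FBS medium; compounds up to 46 uM, 4 h at 37C. Green/red luminescence ratio, filter-overlap corrected, fitted to concentration-response curves.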
In general terms: qHTS replaces the single test concentration by a dilution series.

Where [1] appears, read: measured here: CBR red luminescence, cell number.
The mark [2] stands for this setting: measured here: IkBa-CBG green luminescence.

`COc1cccc(C(=O)Nc2cc(C)c3c(=O)oc4ccccc4c3n2)c1`: the half-maximal activity concentration (AC50) under setting [1] is 5.62 µM [falling, full curve].
Take `CCCOC(=O)CCCCC1SCC(NC(=O)OC)C1NC(=O)OC` (stereo unspecified): the AC50 under setting [1] was 35.5 µM [rising, partial curve, poor fit].
The same measure, in the same setting: for `CSCCNC(=O)c1ccc(C(C)(C)C)cc1` the value was 2.24 µM [rising, full curve, poor fit]; for `CCOc1c(Cl)cc(/C=C/C(=O)N(CC)CC(=O)NCc2cccs2)cc1OC`, 32.6 µM [rising, partial curve, poor fit].
Same read-out and setting: then `O=C(Nc1ccc(Cl)cn1)c1ccc2ccccc2n1`, with 1.41 µM [rising, partial curve, poor fit]; and `O=C(Nc1cccc2cccnc12)c1cccc(N2C(=O)CCC2=O)c1`, with 12.6 µM [falling, partial curve, poor fit]; and `COc1ccc(Br)cc1/C=N/NC(=O)c1nc(-c2ccccc2)n2c1CCCCC2`, with 1.64 µM [rising, single point].
Turning to `O=C1C(=O)N(CCS(=O)(=O)c2ccccc2)c2ccc(Cl)cc21`, the AC50 is 17.8 µM [rising, single point] under setting [1] and 35.5 µM [falling, single point] under setting [2].
Regarding `NC(=O)Cc1ccc(C(=O)c2ccc(Cl)cc2)s1`, the AC50 under setting [1] is 20 µM [falling, partial curve, poor fit].
For `CCOC(=O)c1c(NC(=O)COC(=O)CCOc2ccc(OCC)cc2)sc(C(=O)N(C)C)c1C`, the AC50 under setting [1] was 25.9 µM [rising, partial curve, poor fit].
Still for that read-out and setting: for `Cn1nnnc1SCCOc1ccc(C#N)cc1` the value was 12.6 µM [rising, partial curve, poor fit].
Same read-out and setting: for `CC1Sc2ccc(S(=O)(=O)CCC(=O)N(C)Cc3ccccc3)cc2NC1=O` (stereo unspecified) the value was 15.8 µM [falling, single point]; for `Cc1ccc(/C=C/C(=O)Nc2nnc(SCc3ccc(C#N)cc3)s2)o1`, 29.1 µM [rising, single point].
Consider `O=C(Nc1ccc(Br)cn1)c1ccc([N+](=O)[O-])o1`, for which the AC50 under setting [1] is 10 µM [falling, partial curve] and the AC50 under setting [2] is 35.5 µM [rising, partial curve, poor fit].
As for `CCOC(=O)c1cnn(-c2ccc([N+](=O)[O-])cc2)c1N`, the half-maximal activity concentration (AC50) under setting [1] is 2 µM [rising, full curve].
On the same count and under the same terms, for `COc1ccc(C(=O)Nc2nc3ccccc3s2)cc1` the value was 2.82 µM [falling, full curve]; for `COc1ccc(-c2cc(C(F)F)nc(-n3nc(C)cc3C)n2)cc1`, 11.2 µM [falling, single point]; for `COc1ccc(-c2nc(-c3cccs3)c(-c3cccs3)[nH]2)cc1OC`, 18.4 µM [falling, partial curve, poor fit].
On the same count and under the same terms, for `COc1ccc(CCNc2ncnc3c2cnn3-c2cccc(Cl)c2)cc1` the value was 25.1 µM [falling, partial curve, poor fit]; for `CCN(CC)c1ccc(C(=O)Nn2c(C)nc3ccccc3c2=O)cc1`, 35.5 µM [rising, single point].
As to `COc1ccccc1N1CCN(C(=O)c2cn(-c3ccccc3)nc2-c2cccnc2)CC1`, the half-maximal activity concentration (AC50) under setting [1] was 29.1 µM [rising, single point].
On the same count and under the same terms, then `Cc1cccc2cc(C3CC(c4ccco4)=NN3S(C)(=O)=O)c(Cl)nc12` (stereo unspecified), with 14.1 µM [falling, single point]; and `CC1COc2ccccc2N1C(=O)c1cccnc1Cl` (stereo unspecified), with 35.5 µM [falling, single point].
As to `O=C(Cc1cccs1)N/N=C/C=C/c1ccco1`, the AC50 under setting [2] was 20.6 µM [falling, partial curve, poor fit].
For the molecule `N#CCSc1nc(N)c(C#N)c(C2CCCCC2)c1C#N`, the AC50 was 12.6 µM [rising, partial curve, poor fit] under setting [1] and 10 µM [falling, partial curve] under setting [2].
For `CC1CCCC(NC(=O)c2cccc(N3CCCC3=O)c2)C1C` (stereo unspecified), the AC50 under setting [1] is 20 µM [falling, partial curve, poor fit].
On the same count and under the same terms, for `COCCNC(=O)C(=O)Nc1cccc(Br)c1` the value was 29.1 µM [falling, single point].
For the molecule `CC[C@]12c3[nH]c4cc(CCC(=O)N(C)C)ccc4c3CCN1C(=O)[C@@H](CC(=O)NCC13CC4CC(CC(C4)C1)C3)C[C@@H]2C(=O)N1CCN(C(=O)c2ccco2)CC1`, the AC50 is 1.64 µM [rising, partial curve] under setting [1] and 18.4 µM [falling, partial curve] under setting [2].
For the molecule `O=C(Nc1cc(N2CCCCC2)ncn1)c1ccccc1`, under setting [1], the concentration at half-maximal activity (AC50) was 11.2 µM [falling, single point].
Still for that read-out and setting: for `Cc1ccccc1-n1c(SCC(=O)N(C)C2CCS(=O)(=O)C2)nc2ccccc2c1=O` (stereo unspecified) the value was 7.94 µM [rising, partial curve, poor fit]; for `CC(C)Cn1c(SC(C)C(=O)NC2CC2)nnc1-c1ccccc1F` (stereo unspecified), 29.1 µM [rising, partial curve, poor fit]; for `COC(=O)c1cc(-c2ccc(Cl)cc2)n[nH]1`, 2 µM [rising, partial curve, poor fit].
Still for that read-out and setting: for `CCCCCCOC(=O)C(C#N)c1nc2ccccc2nc1N1CCN(C)CC1` (stereo unspecified) the value was 29.1 µM [falling, single point] and 1.58 µM [falling, full curve, poor fit].
Still for that read-out and setting: for `Cc1cccc(NC(=O)CSc2nnc(CNC(=O)c3ccco3)n2C)c1` the value was 20 µM [rising, partial curve, poor fit]; for `COCc1ccc(CN2CCCCC2C(=O)Nc2ccc(Oc3ccccc3)nc2)o1` (stereo unspecified), 11.2 µM [rising, single point].
As to `N/C(=N\OC(=O)c1ccco1)c1cccc(Br)c1`, under setting [1], the AC50 is 0.517 µM [rising, full curve].
The same measure, in the same setting: then `O=C(CSc1nnc(-c2cccnc2)s1)Nc1cccc(C(=O)O)c1`, with 10.3 µM [falling, partial curve, poor fit]; and `CC(C)[C@@H](COc1ccccc1)N1CCN(Cc2ccccc2)CCC1=O`, with 11.2 µM [falling, partial curve, poor fit].
With `N#CC(C#N)=C/C=C(\Nc1ccc(Cl)cc1)c1ccc(Cl)cc1`, the concentration at half-maximal activity (AC50) under setting [1] was 10 µM [falling, partial curve].
`O=C(Nc1ccccc1)c1ccc(-c2ccccc2C(F)(F)F)o1`: the AC50 under setting [1] is 29.1 µM [falling, single point].
The same measure, in the same setting: then `COc1cc(NC(=O)CSc2nc3nc(C)c(Cc4ccc(C)cc4)c(C)n3n2)cc(OC)c1`, with 6.31 µM [falling, full curve, poor fit]; and `CC1(/[N+]([O-])=C/c2ccccc2F)CCCCC1=O` (stereo unspecified), with 20 µM [falling, partial curve].
Still for that read-out and setting: for `CCCc1nc2oc3ccccc3c(=O)c2c(=O)n1-c1ccccc1` the value was 0.398 µM [falling, full curve].
On the same count and under the same terms, for `Cc1cc(C)nc(NC(=O)/C=C/c2ccccc2Cl)n1` the value was 16.4 µM [falling, partial curve, poor fit].
As for `CCOC(=O)N1CCC(Nc2cccc(SC)c2)CC1`, under setting [1], the half-maximal activity concentration (AC50) is 14.1 µM [falling, partial curve, poor fit].
On the same count and under the same terms, then `Cc1ccc(N2C(=O)C3ON(c4ccccc4)C(c4ccncc4)C3C2=O)cc1` (stereo unspecified), with 13 µM [falling, partial curve, poor fit]; and `CN1CCC2(CC1)Nc1nc(SCc3ccc(Cl)cc3)nn1C1=C2CN(C)CC1`, with 25.1 µM [falling, single point].
Still for that read-out and setting: for `CC(=O)Oc1ccc2c(=O)oc(-c3ccc([N+](=O)[O-])cc3)nc2c1` the value was 0.501 µM [falling, full curve].
Still for that read-out and setting: for `COc1cccc(-n2c(SCC(=O)NC3CCCCC3)nc3n[nH]c(C)c3c2=N)c1` the value was 7.08 µM [falling, partial curve, poor fit].
In the case of `CN(C)S(=O)(=O)c1ccc(NC(=O)CSc2nc3ccccc3n2-c2ccccc2)cc1`, under setting [1], the AC50 was 23.1 µM [falling, partial curve, poor fit].
Same read-out and setting: for `Cc1cc(=O)[nH]c(SCc2cc(=O)n3nc(C)sc3n2)n1` the value was 5.17 µM [falling, single point].
On the same count and under the same terms, for `CNC(=O)N(O)C1N(C)C(=O)N(Cc2ccccc2)C1(C)C` (stereo unspecified) the value was 0.82 µM [falling, full curve, poor fit]; for `CC(=O)c1sc(NC(=O)COc2ccc(Cl)cc2C)nc1C`, 8.91 µM [rising, partial curve, poor fit]; for `Clc1nssc1=Nc1ccc(Br)cc1`, 35.5 µM [falling, single point].
On the same count and under the same terms, then `CCOc1cc(-c2noc(CCC(=O)NCC3CCCO3)n2)ccc1OC` (stereo unspecified), with 3.16 µM [falling, single point]; and `Cc1c(NC(=O)CSc2ccccn2)c(=O)n(-c2ccccc2)n1C`, with 29.1 µM [rising, single point]; and `O=C(Nc1ccc(Br)cc1)c1cccc(S(=O)(=O)Nc2cnc3ccccc3c2)c1`, with 18.4 µM [falling, single point].
`Cc1cc(=O)oc2cc(OCC3CC(c4ccc(N(C)C)cc4)=NO3)ccc12` (stereo unspecified): under setting [1], the half-maximal activity concentration (AC50) was 3.98 µM [rising, full curve, poor fit].
Turning to `FC(F)(F)COc1ccc(-c2nnc(SCc3ccccc3)o2)cn1`, under setting [1], the AC50 was 0.0891 µM [falling, full curve, poor fit].
Same read-out and setting: then `COc1ccc(-c2c([C@H]3[C@@H]4C=CCC[C@@]4(C)C(=O)N3Cc3ccccc3)ccc3ccccc23)cc1OC`, with 22.4 µM [falling, single point].
On the same count and under the same terms, for `O=C(Nc1ccc(F)cc1F)c1cc2n(n1)C(C(F)(F)F)C1CCCCC1N2` (stereo unspecified) the value was 11.6 µM [rising, partial curve].
As to `CC(C)COC(=O)c1cccc2c1-c1ccccc1/C2=N\O`, the AC50 under setting [2] is 29.1 µM [rising, partial curve, poor fit].

As a reminder, the AC50 is the midpoint of the concentration-response curve, whichever way the signal moves.
